PubChem BioAssay AID1259308 – NCATS – 2017

- Aim: 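Candidate targets for better recombinant protein yield in mammalian cells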 (primary screen)
- Cells: human HEK293 embryonic kidney cells stably expressing firefly luciferase (HEK-CMV-Luc2-Hygro)
- Knock-down reagent: single siRNA against human genes, 0.8 pmol siRNA per well
- Duration: 72 h
- Detection: 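Luciferase light (ONE-Glo) measured on one replicate plate set and viability (CellTiter-Glo) on the other, scaled to a negative control siRNA, with robust z-scores and luciferase per cell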
- Scale: total luciferase, z-score: higher = more reporter protein produced
- Call rule: 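An siRNA counts as active if its total luciferase robust z-score exceeds 3; genes with two or more such siRNAs out of three were retested with fresh siRNAs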
- Calls: active = raised luciferase; inactive = no rise
The deposit covers about 59,000 reagents; this is an unselected part. About 1,510 of all reagents (2.6%) count as active. 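Calls use total luciferase alone and ignore viability, so some active siRNAs may act by altering cell number.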 A number with no mark means an inactive call. The numbers tell different reagents against one gene apart. Not all columns of the deposit are shown.

GPR83 #1 | total luciferase, z-score: 0.641
GPR83 #2 | total luciferase, z-score: 1.07
GPR83 #3 | total luciferase, z-score: -0.239
FAU #1 | total luciferase, z-score: -2.63
FAU #2 | total luciferase, z-score: -2
FAU #3 | total luciferase, z-score: 0.326
WARS2 #1 | total luciferase, z-score: -1.19
WARS2 #2 | total luciferase, z-score: 0.164
WARS2 #3 | total luciferase, z-score: -0.158
GTF3C6 #1 | total luciferase, z-score: 1.41
GTF3C6 #2 | total luciferase, z-score: 0.0547
GTF3C6 #3 | total luciferase, z-score: -0.648
SLC10A6 #1 | total luciferase, z-score: -0.117
SLC10A6 #2 | total luciferase, z-score: 0.769
SLC10A6 #3 | total luciferase, z-score: -0.0726
ATP13A3 #1 | total luciferase, z-score: -0.637
ATP13A3 #2 | total luciferase, z-score: 0.939
ATP13A3 #3 | total luciferase, z-score: 0.389
GPX6 #1 | total luciferase, z-score: 0.736
GPX6 #2 | total luciferase, z-score: 0.292
GPX6 #3 | total luciferase, z-score: -0.812
PILRA #1 | total luciferase, z-score: 0.736
PILRA #2 | total luciferase, z-score: -0.381
PILRA #3 | total luciferase, z-score: 0.524
LILRA4 #1 | total luciferase, z-score: -0.233
LILRA4 #2 | total luciferase, z-score: 1.24
LILRA4 #3 | total luciferase, z-score: 3.49 (active)
KCNJ3 #1 | total luciferase, z-score: 0.528
KCNJ3 #2 | total luciferase, z-score: -0.0693
KCNJ3 #3 | total luciferase, z-score: -0.481
RPL34 #1 | total luciferase, z-score: -2.77
RPL34 #2 | total luciferase, z-score: -2.98
RPL34 #3 | total luciferase, z-score: -2.56
